# The list shows only some results of the screen, not a fair sample: it gathers tests that were run many times, whatever their T/C, doses with no T/C, and many T/C values between a quarter and a half above the control. Further doses and runs are listed elsewhere. T/C: endpoint of the treated group in % of that of the vehicle group. Some doses have a count of surviving animals in place of a T/C: the source files T/C as zero there, which appears to mark a toxic dose or a test without result, not a measured value. Some survivor counts are full or nearly so, which does not show that the dose was tolerated: the source hardly ever lists a survival T/C far under the control, and the zero likely stands for such cases as well. Survivors were counted at the toxicity check, usually on the fifth day, unless a day is given; later deaths do not show. Schedules are NCI's codes, taken here to give the interval after Q, in days (D) or hours (H), and the number of doses after X. For survival time, the PubChem record calls one and a half times the control and up active, and a quarter to a half above the control has no call in these data; cut-offs in other NCI protocols can differ.
# Test system: L1210 leukemia ip in BDF1 mice, survival T/C
# Assay: NCI In Vivo Anticancer Drug Screen. Data for tumor model L1210 Leukemia (intraperitoneal) in B6D2F1 (BDF1) mice
# Details: T/C endpoint: mean survival time, higher T/C = longer survival
# [1] = dose: 400.0 mg/kg/injection, schedule: Q04DX003 (ip), vehicle: saline
# [2] = dose: 400.0 mg/kg/injection, schedule: Q01DX001 (ip), vehicle: saline
# [3] = dose: 100.0 mg/kg/injection, schedule: Q01DX001 (ip), vehicle: carboxymethylcellulose (CMC)
# [4] = dose: 200.0 mg/kg/injection, schedule: Q01DX001 (ip), vehicle: carboxymethylcellulose (CMC)
# [5] = dose: 400.0 mg/kg/injection, schedule: Q01DX001 (ip), vehicle: carboxymethylcellulose (CMC)
smiles,measurement,setting,value
BrC#CC1CCCCC1,survivor count,[1],1 of 6
CCCCCCC1=C(CCCCCCC(=O)O)C(=O)CC1,survivor count,"dose: 100.0 mg/kg/injection, schedule: Q04DX002 (ip), vehicle: Klucel (hydroxypropylcellulose) (HPC)",1 of 3
same,survivor count,"dose: 200.0 mg/kg/injection, schedule: Q04DX002 (ip), vehicle: Klucel (hydroxypropylcellulose) (HPC)",1 of 3
same,survivor count,"dose: 400.0 mg/kg/injection, schedule: Q04DX002 (ip), vehicle: Klucel (hydroxypropylcellulose) (HPC)",1 of 3
COC(=O)C(CCC(=O)O)NC(=O)OCc1ccccc1 (configuration not stated),survivor count,"dose: 100.0 mg/kg/injection, schedule: Q01DX009 (ip), vehicle: Klucel (hydroxypropylcellulose) (HPC)",3 of 6
same,survivor count,"dose: 200.0 mg/kg/injection, schedule: Q01DX009 (ip), vehicle: Klucel (hydroxypropylcellulose) (HPC)",0 of 6
same,survivor count,"dose: 400.0 mg/kg/injection, schedule: Q04DX003 (ip), vehicle: Klucel (hydroxypropylcellulose) (HPC)",1 of 6
CN(C)CCOC(=O)c1cccc(CCl)c1CCl,survivor count,"dose: 175.0 mg/kg/injection, schedule: Q01DX009 (ip), vehicle: saline",1 of 6
same,survivor count,"dose: 350.0 mg/kg/injection, schedule: Q01DX009 (ip), vehicle: saline",0 of 6
Cc1cc(C)[nH]c(=S)n1,survivor count,[1],6 of 6
O=C(O)c1cccnn1,survivor count,[2],1 of 6
CCCCCCC(=O)/C=C/c1ccc(Cl)c(Cl)c1,survivor count,"dose: 400.0 mg/kg/injection, schedule: Q01DX009 (ip), vehicle: acetone",2 of 6
CC[Si](C)(C)N1CC1,survivor count,"dose: 50.0 mg/kg/injection, schedule: Q01DX001 (ip), vehicle: carboxymethylcellulose (CMC)",6 of 6
same,survivor count,[3],0 of 4
same,survivor count,[4],0 of 4
same,survivor count,[5],0 of 4
CC1CCC2(O)C3(C)CC4(O)OC2(C1O)C1(O)C3(O)C(OC(=O)c2ccc[nH]2)C(O)(C(C)C)C41C (configuration not stated),survivor count,"dose: 0.5 mg/kg/injection, schedule: Q01DX001 (ip), vehicle: carboxymethylcellulose (CMC)",0 of 6
same,survivor count,"dose: 1.0 mg/kg/injection, schedule: Q01DX001 (ip), vehicle: carboxymethylcellulose (CMC)",0 of 6
same,survivor count,"dose: 15.0 mg/kg/injection, schedule: Q01DX001 (ip), vehicle: carboxymethylcellulose (CMC)",0 of 6
same,survivor count,"dose: 30.0 mg/kg/injection, schedule: Q01DX001 (ip), vehicle: carboxymethylcellulose (CMC)",0 of 6
same,survivor count,"dose: 60.0 mg/kg/injection, schedule: Q01DX001 (ip), vehicle: carboxymethylcellulose (CMC)",0 of 6
same,survivor count,"dose: 75.0 mg/kg/injection, schedule: Q01DX001 (ip), vehicle: carboxymethylcellulose (CMC)",0 of 6
same,survivor count,"dose: 150.0 mg/kg/injection, schedule: Q01DX001 (ip), vehicle: carboxymethylcellulose (CMC)",0 of 6
same,survivor count,"dose: 300.0 mg/kg/injection, schedule: Q01DX001 (ip), vehicle: carboxymethylcellulose (CMC)",0 of 6
Cc1ccc(C(=O)N/N=C/C(CC(O)C(O)CO)=N/NC(=O)c2ccc(C)cc2)cc1 (configuration not stated),survivor count,"dose: 400.0 mg/kg/injection, schedule: Q04DX003 (ip), vehicle: alcohol",5 of 6
CCCCCCCCCCCCCCCCCCCCC(C(=O)O)S(=O)(=O)O (configuration not stated),survivor count,"dose: 200.0 mg/kg/injection, schedule: Q04DX003 (ip), vehicle: saline",0 of 6
CS(=O)(=O)OCCCCCOS(C)(=O)=O,T/C,"dose: 25.0 mg/kg/injection, schedule: Q01DX015 (ip), vehicle: saline",128 % of control
same,survivor count,"dose: 80.0 mg/kg/injection, schedule: Q01DX001 (ip), vehicle: carboxymethylcellulose (CMC)",0 of 4
same,survivor count,[3],1 of 4
same,survivor count,"dose: 100.0 mg/kg/injection, schedule: Q01DX015 (ip), vehicle: saline",0 of 6
same,survivor count,[4],0 of 4
same,survivor count,[5],0 of 4
O=C(CBr)Nc1ccc(Cl)cc1,survivor count,"dose: 38.0 mg/kg/injection, schedule: Q04DX003 (ip), vehicle: Klucel (hydroxypropylcellulose) (HPC)",2 of 6
same,survivor count,"dose: 75.0 mg/kg/injection, schedule: Q04DX003 (ip), vehicle: Klucel (hydroxypropylcellulose) (HPC)",0 of 6
same,survivor count,"dose: 150.0 mg/kg/injection, schedule: Q04DX003 (ip), vehicle: Klucel (hydroxypropylcellulose) (HPC)",0 of 6
same,survivor count,"dose: 200.0 mg/kg/injection, schedule: Q01DX001 (ip), vehicle: other",1 of 4
same,survivor count,"dose: 400.0 mg/kg/injection, schedule: Q01DX001 (ip), vehicle: other",0 of 4
Nc1ncc2[nH]c(I)nc2n1,survivor count,"dose: 10.0 mg/kg/injection, schedule: Q01DX001 (ip), vehicle: saline",3 of 6
same,survivor count,"dose: 20.0 mg/kg/injection, schedule: Q01DX001 (ip), vehicle: saline",3 of 6
same,survivor count,"dose: 40.0 mg/kg/injection, schedule: Q01DX001 (ip), vehicle: saline",0 of 6
same,survivor count,"dose: 80.0 mg/kg/injection, schedule: Q01DX001 (ip), vehicle: saline",0 of 6
same,survivor count,"dose: 100.0 mg/kg/injection, schedule: Q01DX001 (ip), vehicle: saline",0 of 4
same,survivor count,"dose: 200.0 mg/kg/injection, schedule: Q01DX001 (ip), vehicle: saline",0 of 4
same,survivor count,[2],0 of 4
CC(N)CN(C)C (configuration not stated),survivor count,"dose: 400.0 mg/kg/injection, schedule: Q01DX009 (ip), vehicle: saline",1 of 6
CC(C)c1ccc([N+](=O)[O-])cc1,survivor count,"dose: 400.0 mg/kg/injection, schedule: Q01DX009 (ip), vehicle: saline with Tween-80",3 of 6
CCCCC(=O)N1CC(C)OC(C)C1 (configuration not stated),survivor count,"dose: 100.0 mg/kg/injection, schedule: Q01DX009 (ip), vehicle: carboxymethylcellulose (CMC)",3 of 3

# Source: PubChem BioAssay AID248 (DTP/NCI, 2004)
